Test results taken from patent US7189749B2, “Substituted phenoxyacetic acids” (The Institutes for Pharmaceutical Discovery LLC, priority 1999, dated 2007).
For at least one compound, name, drawing or mass did not settle the structure.

Target: T1, human aldehyde reductase (hALR1) (Homo sapiens, UniProt P14550)
T1 sequence (P14550 1-325): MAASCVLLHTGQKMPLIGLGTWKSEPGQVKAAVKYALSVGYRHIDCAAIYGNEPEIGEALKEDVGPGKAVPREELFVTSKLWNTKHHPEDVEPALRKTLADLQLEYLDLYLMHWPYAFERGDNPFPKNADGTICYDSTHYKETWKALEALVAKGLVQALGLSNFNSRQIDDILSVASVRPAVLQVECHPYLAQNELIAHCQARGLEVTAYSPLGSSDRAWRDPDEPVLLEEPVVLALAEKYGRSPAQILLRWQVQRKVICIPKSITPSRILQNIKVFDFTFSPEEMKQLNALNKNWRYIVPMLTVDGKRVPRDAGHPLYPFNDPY
Experiment: inhibition of human aldehyde reductase (hALR1), methods essentially of Ishii et al.
Type: biochemical
Conditions: ratio of hALR1 IC50 to hALR2 IC50; selectivity
Description: In a second assay, a number of the same compounds were tested for their ability to inhibit aldehyde reductase (hAR1), a structurally related enzyme. […] Using this assay, the concentrations required to inhibit human aldehyde reductase activity by 50% (ICSO) were determined.
Since high potency of test compounds as inhibitors of aldose reductase is desirable, low hALR2 IC50 values are sought. On the other hand, high potency of test compounds as inhibitors of aldehyde reductase is undesirable, and high hALR1 IC50s values are sought. Accordingly, the hALR1/hALR2 ratio is used to determine the selectivity of the test compounds.

## O=C(O)COc1cc(F)c(N2CCOCC2)cc1C(=O)NCc1cccc([N+](=O)[O-])c1 [Example 53, [2-(3-Nitro-benzylcarbamoyl)-5-fluoro-4-morpholin-4-yl-phenoxy]-acetic acid]
  hALR1/hALR2: 7,700
